Results deposited as PubChem BioAssay AID1224827 (NIAID, 2016).
Aim: 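Retest primary hits on a TNF reporter with six siRNAs per gene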 (follow-up of hits). System: RAW264.7 G9 mouse macrophage reporter clone. Reagents: single siRNA against mouse genes, 100 nM siRNA. Time to read-out: siRNA for 2 days, then LPS about 16 h. Treatment: bacterial lipopolysaccharide (LPS), 10 ng/ml, cells fixed after overnight (about 16 h) stimulation. Measurement: 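Imaged nuclear TNF reporter intensity, background removed, scaled per plate and to non-targeting control wells, as z-scores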. Direction: TNF reporter z-score, mean: higher = stronger Tnf promoter reporter signal. Rule for the call: 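An siRNA is called active when its mean z-score over replicates is at least +2 or at most -2; control wells get no call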.
Here is a random part of about 3,800 reagents. Of all reagents, about 2,200 (57%) got an active call. 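Active means a strong reporter change in either direction; calls are per siRNA, not per gene; qiagen siRNAs gave weaker effects.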 Unmarked entries are inactive. The numbers tell different reagents against one gene apart. Not all columns of the deposit are shown. No sequences are given here.

gene	reagent no.	TNF reporter z-score, mean
Hdac7	1	8.26 (active)
Hdac7	2	1.5
Hdac7	3	-4.95 (active)
Hdac7	4	-0.00429
Hdac7	5	-1.77
Hdac7	6	-2.69 (active)
Mtbp	1	-2.05 (active)
Mtbp	2	-2.58 (active)
Mtbp	3	-4.02 (active)
Mtbp	4	4.51 (active)
Mtbp	5	2.36 (active)
Mtbp	6	-0.511

Part of the list above in another layout:
Hdac7 #4 — TNF reporter z-score, mean: -0.00429
Hdac7 #5 — TNF reporter z-score, mean: -1.77

The results go on.
gene	reagent no.	TNF reporter z-score, mean
Tsg101	1	0.0203
Tsg101	2	-2.68 (active)
Tsg101	3	-2.97 (active)
Tsg101	4	4.11 (active)
Tsg101	5	2.97 (active)
Tsg101	6	3.14 (active)
H2ac25	1	1.88
H2ac25	2	1.54
H2ac25	3	-0.29
H2ac25	4	1.8
H2ac25	5	-0.0799
H2ac25	6	-2.41 (active)
